Among the data in publication doi:10.1101/2024.01.08.574713 are binding values, retold here.

The chains behind the UniProt entries cited, without tags or fusion partners.
UniProt Q61510: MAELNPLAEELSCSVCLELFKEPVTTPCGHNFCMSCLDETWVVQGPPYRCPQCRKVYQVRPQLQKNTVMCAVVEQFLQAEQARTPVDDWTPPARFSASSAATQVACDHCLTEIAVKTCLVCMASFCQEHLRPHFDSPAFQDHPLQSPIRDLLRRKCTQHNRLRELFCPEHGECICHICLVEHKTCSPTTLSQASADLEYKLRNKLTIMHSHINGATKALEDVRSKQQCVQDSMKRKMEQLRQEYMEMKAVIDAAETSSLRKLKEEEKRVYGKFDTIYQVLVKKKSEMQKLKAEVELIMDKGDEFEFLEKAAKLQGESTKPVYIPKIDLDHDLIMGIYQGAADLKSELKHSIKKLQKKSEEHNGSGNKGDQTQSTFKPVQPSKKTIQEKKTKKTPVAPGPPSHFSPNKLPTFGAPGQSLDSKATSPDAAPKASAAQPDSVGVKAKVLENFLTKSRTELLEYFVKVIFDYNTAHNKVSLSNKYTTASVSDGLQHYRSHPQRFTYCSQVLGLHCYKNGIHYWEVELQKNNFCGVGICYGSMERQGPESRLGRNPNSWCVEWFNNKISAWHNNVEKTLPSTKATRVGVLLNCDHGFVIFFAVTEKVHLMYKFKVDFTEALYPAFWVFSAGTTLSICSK

Results are given in words; binding and its absence hold for the method and conditions named. In cells and extracts the contact can be indirect. Some entries that bind do so weakly or less than the wild type.

The target of assay [1] is T1, RIG-I (mouse (endogenous in AML-12)) (UniProt Q6Q899).
T1 sequence: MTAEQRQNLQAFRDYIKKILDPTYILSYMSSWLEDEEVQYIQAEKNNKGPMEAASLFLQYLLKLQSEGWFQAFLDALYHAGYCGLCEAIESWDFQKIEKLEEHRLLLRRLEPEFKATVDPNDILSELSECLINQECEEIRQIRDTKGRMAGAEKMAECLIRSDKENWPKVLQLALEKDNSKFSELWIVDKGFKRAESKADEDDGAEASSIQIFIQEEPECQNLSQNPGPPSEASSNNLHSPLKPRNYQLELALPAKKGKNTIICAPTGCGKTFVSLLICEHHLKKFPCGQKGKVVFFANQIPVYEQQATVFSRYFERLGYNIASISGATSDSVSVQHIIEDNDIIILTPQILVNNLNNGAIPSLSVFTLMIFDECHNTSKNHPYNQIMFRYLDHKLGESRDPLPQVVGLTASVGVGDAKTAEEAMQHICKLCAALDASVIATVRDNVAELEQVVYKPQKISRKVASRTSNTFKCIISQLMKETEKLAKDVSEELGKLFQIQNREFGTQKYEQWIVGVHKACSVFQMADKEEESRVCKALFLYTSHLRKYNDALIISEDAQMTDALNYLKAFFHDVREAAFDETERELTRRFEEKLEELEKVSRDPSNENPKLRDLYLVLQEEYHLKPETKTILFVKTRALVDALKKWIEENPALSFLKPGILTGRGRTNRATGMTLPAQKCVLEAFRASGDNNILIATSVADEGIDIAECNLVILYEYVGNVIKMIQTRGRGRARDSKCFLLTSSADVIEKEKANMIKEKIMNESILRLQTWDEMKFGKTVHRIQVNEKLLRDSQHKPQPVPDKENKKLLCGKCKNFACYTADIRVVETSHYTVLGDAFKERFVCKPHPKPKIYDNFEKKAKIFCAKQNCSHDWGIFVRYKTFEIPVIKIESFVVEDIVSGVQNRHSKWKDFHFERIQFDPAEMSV
Kind of assay: co-IP.

The target in assay [2] is T2, PACT, the protein activator of PKR (mouse (endogenous in AML-12)) (UniProt Q9WTX2).
T2 sequence: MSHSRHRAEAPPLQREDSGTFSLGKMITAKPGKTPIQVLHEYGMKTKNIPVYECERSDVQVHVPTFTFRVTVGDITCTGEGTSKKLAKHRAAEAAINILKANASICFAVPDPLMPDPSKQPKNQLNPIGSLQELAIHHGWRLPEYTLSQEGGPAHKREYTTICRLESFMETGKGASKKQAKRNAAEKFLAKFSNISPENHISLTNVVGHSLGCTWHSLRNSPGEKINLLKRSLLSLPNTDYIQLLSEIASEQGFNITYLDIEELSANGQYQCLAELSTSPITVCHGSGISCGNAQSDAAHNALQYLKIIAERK
As to the kind of experiment: co-IP.

In assay [3] the target is T2, PACT, the protein activator of PKR (mouse (endogenous in AML-12)). As to the kind of experiment: co-IP. This is another data set of the same source.
For assay [4] the target is unchanged. Kind of assay: proximity ligation.
For assay [5] the target is unchanged. As to the kind of experiment: proximity ligation. This is another data set of the same source.

As to “TRIM25 (from UniProt Q61510 1-634) (enzyme)”, the binding result in assay [1] was “binds”.

B1: RIG-I (protein, UniProt Q6Q899 1-926)
chain: MTAEQRQNLQAFRDYIKKILDPTYILSYMSSWLEDEEVQYIQAEKNNKGPMEAASLFLQYLLKLQSEGWFQAFLDALYHAGYCGLCEAIESWDFQKIEKLEEHRLLLRRLEPEFKATVDPNDILSELSECLINQECEEIRQIRDTKGRMAGAEKMAECLIRSDKENWPKVLQLALEKDNSKFSELWIVDKGFKRAESKADEDDGAEASSIQIFIQEEPECQNLSQNPGPPSEASSNNLHSPLKPRNYQLELALPAKKGKNTIICAPTGCGKTFVSLLICEHHLKKFPCGQKGKVVFFANQIPVYEQQATVFSRYFERLGYNIASISGATSDSVSVQHIIEDNDIIILTPQILVNNLNNGAIPSLSVFTLMIFDECHNTSKNHPYNQIMFRYLDHKLGESRDPLPQVVGLTASVGVGDAKTAEEAMQHICKLCAALDASVIATVRDNVAELEQVVYKPQKISRKVASRTSNTFKCIISQLMKETEKLAKDVSEELGKLFQIQNREFGTQKYEQWIVGVHKACSVFQMADKEEESRVCKALFLYTSHLRKYNDALIISEDAQMTDALNYLKAFFHDVREAAFDETERELTRRFEEKLEELEKVSRDPSNENPKLRDLYLVLQEEYHLKPETKTILFVKTRALVDALKKWIEENPALSFLKPGILTGRGRTNRATGMTLPAQKCVLEAFRASGDNNILIATSVADEGIDIAECNLVILYEYVGNVIKMIQTRGRGRARDSKCFLLTSSADVIEKEKANMIKEKIMNESILRLQTWDEMKFGKTVHRIQVNEKLLRDSQHKPQPVPDKENKKLLCGKCKNFACYTADIRVVETSHYTVLGDAFKERFVCKPHPKPKIYDNFEKKAKIFCAKQNCSHDWGIFVRYKTFEIPVIKIESFVVEDIVSGVQNRHSKWKDFHFERIQFDPAEMSV
As to B1, the binding entry in assay [2] is “binds weakly”; in assay [3] it was “binds”; in assay [4], “binds”; in assay [5] it was “no binding (condition: untreated cells)”.
